From publication PMC9906020
These are yes or no findings as the source states them, for the method shown. Binding seen in cells or lysates may run through a third protein. A yes stands for co-enrichment or nearness to the bait. Other partners may have been found. No binding means not detected with the bait.

Target: B9-Flag (P. berghei B9 tagged with a triple Flag epitope at the endogenous locus) (P. berghei)
Assay: affinity purification with mass spectrometry; B9-Flag salivary gland sporozoites lysed in 0.5% NP40, precleared, precipitated with Anti-FLAG M2 Affinity Gel 2 h at 4°C; PbGFP sporozoites as control; five independent biological replicates

B1: P52 of P. berghei sporozoites (protein, UniProt Q4Z4D2 24-449)
chain: NVTNPNTTLGHFEICKINIYSGDAEECVLENEFGKMFLFICDIDYNEMSKNIVLPSECAKKTYIDHVNPNGTSPEVNTYDIFPDLIGANESKFRDKFYFYGTPYSSKDIDFICLCFSEVKPDIKHIIKMSFKKMTKKIKGCDFGDNVPTKKDLTNGKALYENSSCHIYAYPGDVIGINCYKKDINNIYNNNLELSPNNCFHNVYYENDILLSSKNLIPNSRVIPDPSNDVKLSKMHSYMSYIILPDEINENVKISCSCKRNEYVGTMFLYVNTSKNILTYTGNNVEETAHLNDHYISIGDMWDMGLYENPEQIQSIISNHANKKYYEHMKIYKGNKMDPSDEDESNENAHNGNRANKDANYSEKMVDNRRQKNNSLNHTNYHGNYNENDNEINISTHDKYYEDHHLGSNRPLRKKRTFWQNLFGTS
binding: no binding
